Values from PubChem BioAssay AID1259260 (Sanger Institute, 2017)
The deposit covers 794 reagents; shown is a part drawn at random. In the full data, 13 (1.6%) got an active call. 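Calls reflect only knock-down without drug; synergy above 0.15 was grouped apart and does not change the call.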 The numbers tell different reagents against one gene apart. Viability is capped at 1. No sequences are given here. Not given: the amount of reagent, the time to read-out.

Test: 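Kinases whose knock-down kills colorectal cancer cells or boosts drug effects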 (primary screen)
System: human NCI-H716 colorectal cancer cells
Knock-down reagent: siRNA pool against human genes
Conditions: anchor drugs BYL719 (alpelisib) 1 µM, cetuximab 5 µg/ml or trametinib 10 nM, each at a dose chosen to harm viability only mildly; DMSO vehicle for the knock-down-alone arm
Measurement: 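Replicate-averaged viability relative to a non-targeting pool, a robust z-score for knock-down alone, and a synergy score per anchor drug versus each agent alone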
Reading the numbers: viability robust z-score, siRNA alone: higher = more surviving cells; below -3 called essential; viability vs control, no drug: higher = more surviving cells; synergy score with BYL719 and synergy score with cetuximab and synergy score with trametinib: higher = stronger synergy (synthetic lethality) with drug
Hit rule: 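Essential when the robust z-score for knock-down alone falls below -3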
Meaning of the calls: active = essential (knock-down alone lowers viability); inactive = no essential effect

The first 6 records as a preview:
| gene | reagent no. | viability robust z-score, siRNA alone | viability vs control, no drug (fraction of control) | synergy score with BYL719 | synergy score with cetuximab | synergy score with trametinib | activity call |
| --- | --- | --- | --- | --- | --- | --- | --- |
| PNKP (polynucleotide kinase 3'-phosphatase) | 1 | -0.612 | 0.874 | -0.0778 | -0.152 | 0.417 | inactive |
| FGFR3 (fibroblast growth factor receptor 3) | 1 | -0.665 | 0.868 | -0.0903 | -0.185 | 0.278 | inactive |
| PIP4K2A (phosphatidylinositol-5-phosphate 4-kinase type 2 alpha) | 1 | 0.531 | 0.993 | -0.0147 | 0.00116 | 0.0139 | inactive |
| TTK (TTK protein kinase) | 1 | -1.08 | 0.825 | -0.202 | -0.144 | -0.137 | inactive |
| RPS6KA3 (ribosomal protein S6 kinase A3) | 1 | -1.3 | 0.803 | -0.163 | -0.259 | -0.0365 | inactive |
| SLK (STE20 like kinase) | 1 | -1.19 | 0.814 | -0.255 | -0.152 | -0.115 | inactive |

The list itself, from the first entry:
| gene | reagent no. | viability robust z-score, siRNA alone | viability vs control, no drug (fraction of control) | synergy score with BYL719 | synergy score with cetuximab | synergy score with trametinib | activity call |
| --- | --- | --- | --- | --- | --- | --- | --- |
| PNKP (polynucleotide kinase 3'-phosphatase) | 1 | -0.612 | 0.874 | -0.0778 | -0.152 | 0.417 | inactive |
| FGFR3 (fibroblast growth factor receptor 3) | 1 | -0.665 | 0.868 | -0.0903 | -0.185 | 0.278 | inactive |
| PIP4K2A (phosphatidylinositol-5-phosphate 4-kinase type 2 alpha) | 1 | 0.531 | 0.993 | -0.0147 | 0.00116 | 0.0139 | inactive |
| TTK (TTK protein kinase) | 1 | -1.08 | 0.825 | -0.202 | -0.144 | -0.137 | inactive |
| RPS6KA3 (ribosomal protein S6 kinase A3) | 1 | -1.3 | 0.803 | -0.163 | -0.259 | -0.0365 | inactive |
| SLK (STE20 like kinase) | 1 | -1.19 | 0.814 | -0.255 | -0.152 | -0.115 | inactive |
| MERTK (MER proto-oncogene, tyrosine kinase) | 1 | 0.134 | 0.951 | -0.236 | -0.144 | 0.0124 | inactive |
| TNK1 (tyrosine kinase non receptor 1) | 1 | 0.602 | 1 | -0.174 | -0.1 | -0.101 | inactive |
| PDK3 (pyruvate dehydrogenase kinase 3) | 1 | 0.492 | 0.989 | -0.115 | -0.111 | 0.0475 | inactive |
| CSNK1G1 (casein kinase 1 gamma 1) | 1 | 0.602 | 1 | -0.283 | -0.1 | -0.227 | inactive |
| HIPK3 (homeodomain interacting protein kinase 3) | 1 | -3.42 | 0.582 | -0.237 | -0.0762 | -0.0319 | active |
| CAMK1G (calcium/calmodulin dependent protein kinase IG) | 1 | 0.602 | 1 | -0.167 | -0.1 | -0.114 | inactive |
| CAMKV (CaM kinase like vesicle associated) | 1 | -1.78 | 0.752 | -0.256 | -0.165 | 0.0248 | inactive |
| DYRK3 (dual specificity tyrosine phosphorylation regulated kinase 3) | 1 | 0.602 | 1 | -0.154 | 0.126 | -0.0305 | inactive |
| MAPK1 (mitogen-activated protein kinase 1) | 1 | -1.03 | 0.83 | -0.0063 | -0.193 | 0.136 | inactive |
| PIK3R5 (phosphoinositide-3-kinase regulatory subunit 5) | 1 | 0.602 | 1 | -0.101 | -0.1 | 0.00983 | inactive |
| BCOR (BCL6 corepressor) | 1 | 0.602 | 1 | -0.183 | -0.1 | 0.278 | inactive |
| NME1 (NME/NM23 nucleoside diphosphate kinase 1) | 1 | 0.602 | 1 | -0.0525 | 0.0473 | -0.134 | inactive |
| SGK3 (serum/glucocorticoid regulated kinase family member 3) | 1 | 0.602 | 1 | -0.0295 | 0.0223 | 0.0305 | inactive |
| ACVR2A (activin A receptor type 2A) | 1 | 0.602 | 1 | -0.0965 | -0.1 | -0.117 | inactive |
| CDK11A (cyclin dependent kinase 11A) | 1 | -1.52 | 0.78 | -0.313 | -0.27 | -0.0893 | inactive |
| SIK2 (salt inducible kinase 2) | 1 | -0.0394 | 0.933 | -0.12 | -0.16 | -0.321 | inactive |
| CAMK2D (calcium/calmodulin dependent protein kinase II delta) | 1 | 0.602 | 1 | -0.218 | -0.1 | 0.00446 | inactive |
| ULK2 (unc-51 like autophagy activating kinase 2) | 1 | -1.02 | 0.832 | -0.24 | -0.18 | -0.122 | inactive |
| IRAK1 (interleukin 1 receptor associated kinase 1) | 1 | 0.602 | 1 | -0.182 | -0.0881 | 0.017 | inactive |
| IPMK (inositol polyphosphate multikinase) | 1 | 0.602 | 1 | -0.283 | -0.0847 | -0.0103 | inactive |
| HCK (HCK proto-oncogene, Src family tyrosine kinase) | 1 | 0.602 | 1 | -0.274 | -0.1 | 0.0905 | inactive |
| CDK2 (cyclin dependent kinase 2) | 1 | 0.602 | 1 | -0.174 | -0.1 | 0.123 | inactive |
| NIM1K (NIM1 serine/threonine protein kinase) | 1 | 0.602 | 1 | -0.283 | -0.1 | -0.125 | inactive |
| NEK8 (NIMA related kinase 8) | 1 | 0.602 | 1 | -0.0359 | -0.1 | 0.111 | inactive |
| SPHK2 (sphingosine kinase 2) | 1 | 0.602 | 1 | -0.0121 | -0.1 | 0.121 | inactive |
| AURKA (aurora kinase A) | 1 | -1.74 | 0.756 | -0.0978 | 0.0709 | 0.0526 | inactive |
| MTOR (mechanistic target of rapamycin kinase) | 1 | 0.602 | 1 | 0.0288 | -0.0684 | 0.127 | inactive |
| PLK4 (polo like kinase 4) | 1 | -1.14 | 0.819 | -0.104 | 0.0189 | 0.000604 | inactive |
| SRGAP3 (SLIT-ROBO Rho GTPase activating protein 3) | 1 | 0.602 | 1 | -0.239 | -0.1 | -0.0877 | inactive |
| ANKK1 (ankyrin repeat and kinase domain containing 1) | 1 | 0.602 | 1 | -0.115 | -0.1 | -0.142 | inactive |
| ILK (integrin linked kinase) | 1 | 0.602 | 1 | -0.209 | -0.0964 | 0.111 | inactive |
| ILK (integrin linked kinase) | 2 | 0.602 | 1 | -0.179 | -0.1 | -0.0382 | inactive |
| PRPS1L1 (phosphoribosyl pyrophosphate synthetase 1 like 1) | 1 | -1.66 | 0.765 | -0.373 | 0.143 | -0.116 | inactive |
| PAK2 (p21 (RAC1) activated kinase 2) | 1 | -0.666 | 0.868 | -0.00639 | -0.0557 | 0.0969 | inactive |
| SGK1 (serum/glucocorticoid regulated kinase 1) | 1 | 0.602 | 1 | -0.0779 | 0.234 | 0.024 | inactive |
| CDK14 (cyclin dependent kinase 14) | 1 | 0.602 | 1 | -0.227 | -0.1 | -0.124 | inactive |
| ADCK2 (aarF domain containing kinase 2) | 1 | -0.0079 | 0.937 | -0.107 | -0.157 | 0.0925 | inactive |
| CKS2 (CDC28 protein kinase regulatory subunit 2) | 1 | 0.602 | 1 | 0.0554 | -0.1 | 0.0971 | inactive |
| ATP23 | 1 | 0.602 | 1 | -0.142 | -0.1 | 0.00608 | inactive |
| EPHA1 (EPH receptor A1) | 1 | 0.454 | 0.985 | -0.247 | -0.114 | 0.103 | inactive |
| CHUK | 1 | 0.602 | 1 | -0.192 | -0.1 | -0.169 | inactive |
| PLK1 (polo like kinase 1) | 1 | -4.54 | 0.465 | -0.217 | -0.223 | -0.0809 | active |
| DMPK (DM1 protein kinase) | 1 | -1.2 | 0.813 | -0.147 | -0.253 | -0.0975 | inactive |
| SRPK2 (SRSF protein kinase 2) | 1 | 0.602 | 1 | -0.155 | -0.1 | -0.0438 | inactive |
